# Structures can show the parent of a compound that is named as a salt. At least one structure is not confirmed: it was looked up by name or label, or the drawing left a doubt.
# System: spontaneously hypertensive (SH) rats
# Experiment: Antihypertensive effect (blood pressure and heart rate) in spontaneously hypertensive rats
# Type: in vivo, rat
# Conditions: intraperitoneal 0.3 mg./kg.
# Procedure: The screening is conducted as follows:
# Male spontaneously hypertensive (SH) rats are trained to be restrained in a wire mesh cylinder in a warming box, at least two training cycles being conducted before testing. The rats are warmed for about 1/2 hour period to blood pressure measurement, the warming box being maintained at a constant temperature of 36° C.
# An occluding cuff attached to the programed sphymomanometer is placed near the base of the tail of each rat and the pressure in the cuff is increased automatically from 0 to 250 milimeters of mercury (mm Hg) at a rate of 10 mm Hg per second. The total time for each cycle of inflation and deflation of the cuff is 50 seconds and the interval between cycles is one minute.
# A photocell is placed distal to the cuff to record the pulses due to forward motion of blood flow with each heart beat. As the pressure in the cuff increases, the pulse disappears completely at a point where cuff pressure equals or exceeds the arterial blood pressure and it reappears during deflation at approximately the same pressure. Five interference free signals for deflation are recorded for each rat. Rats with a blood pressure of 180 mm Hg or more during the control period are used in the study. Blood pressure and heart rate readings are recorded on a model VII Grass polygraph at intervals of 1, 3, 5 and 24 hours after administration of the drug.
compound,measurement,value
"COc1cc2nc(N3CCN(C(=O)C4CCCO4)CC3)nc(N)c2cc1OC (stereo not shown) [2[4-(Tetrahydro-2-Furoyl)Piperazinyl]-4-Amino-6,7-Dimethoxyquinazoline Hydrochloride]",duration of the effect (decrease in blood pressure),more than five hours

# — patent US4112097A, “Antihypertensive agents” (Abbott Laboratories, priority 1977, dated 1978)
